Measurements reported in PubChem BioAssay AID743454 (Peter MacCallum Cancer Centre, 2014)
This is an unselected part of about 18,000 reagents tested. 450 of them (2.5%) count as active. 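Single biological run; no consistent viability z cut-off exists, so the class columns, not z-scores, define the calls.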

Screen: 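Knock-downs lowering viability or raising caspase 3/7 activity in vorinostat-treated resistant cells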 (primary screen)
Cell system: human HCT116-VR colon cancer cells, selected for vorinostat resistance
Knock-down reagent: siRNA pool against human genes, 40 nM siRNA pool
Timing: vorinostat for 24 h, read-out about 72 h after transfection
Challenge: vorinostat at 2.5 µM final
Detection: 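Cell viability by CellTiter-Fluor and caspase 3/7 activity by luminescence, each scaled to mock wells per plate, duplicates averaged, then robust z-scored over all plates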
Scale: viability robust z-score: higher = more viable cells than screen typical; caspase robust z-score: higher = more caspase 3/7 activity than screen typical
Hit rule: 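Hits are knock-downs in viability class RV1/RV2 or caspase class CA1/CA2, excluding ones that killed cells in the no-drug cell-count arm; hits then retested with single siRNAs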

| target | viability hit class | caspase hit class | viability robust z-score | caspase robust z-score | call |
| --- | --- | --- | --- | --- | --- |
| PTH1R (parathyroid hormone 1 receptor) | no change | no change | 1 | -0.04 | inactive |
| OLA1 (Obg like ATPase 1) | no change | no change | 1.01 | 0.18 | inactive |
| TUBA3E (tubulin alpha 3e) | no change | no change | -2.06 | 1.3 | inactive |
| IFNK (interferon kappa) | no change | no change | -1.31 | -0.58 | inactive |
| SCGB1D2 (secretoglobin family 1D member 2) | no change | no change | 1.2 | -0.38 | inactive |
| DHX33 (DEAH-box helicase 33) | no change | no change | 0.18 | -0.57 | inactive |
| SERPINB2 (serpin family B member 2) | no change | no change | 0.03 | 0.59 | inactive |
| HMGCL (3-hydroxy-3-methylglutaryl-CoA lyase) | no change | no change | -1.4 | -0.54 | inactive |
| PEX12 (peroxisomal biogenesis factor 12) | no change | no change | -0.54 | 3.52 | inactive |
| EPRS1 (glutamyl-prolyl-tRNA synthetase 1) | no change | no change | -1.8 | 0.76 | inactive |
| COA6 (cytochrome c oxidase assembly factor 6) | no change | no change | 0.13 | -1.36 | inactive |
| S100A11 (S100 calcium binding protein A11) | no change | no change | 1.34 | 0.53 | inactive |
| MRPL24 (mitochondrial ribosomal protein L24) | no change | no change | -0.46 | -0.5 | inactive |
| BBS12 (Bardet-Biedl syndrome 12) | no change | no change | 0.77 | -0.95 | inactive |
| COMT (catechol-O-methyltransferase) | no change | no change | -2.91 | 6.72 | inactive |
| KAT2B (lysine acetyltransferase 2B) | no change | no change | -0.81 | 0.7 | inactive |
| OR52B4 (olfactory receptor family 52 subfamily B member 4) | no change | no change | -0.12 | 0.98 | inactive |
| NDUFA9 (NADH:ubiquinone oxidoreductase subunit A9) | no change | no change | 1.92 | -1.16 | inactive |
| ZNF275 (zinc finger protein 275) | no change | no change | 0.24 | 0.68 | inactive |
| KRTAP5-2 (keratin associated protein 5-2) | no change | no change | 0.75 | -0.22 | inactive |
| MTNR1A (melatonin receptor 1A) | no change | no change | 0.22 | -0.76 | inactive |
| FCRL5 (Fc receptor like 5) | no change | no change | 0.54 | 0.31 | inactive |
| SASH1 (SAM and SH3 domain containing 1) | no change | no change | 0.15 | -0.42 | inactive |
| ENTREP3 (endosomal transmembrane epsin interactor 3) | no change | no change | 0.8 | 0.9 | inactive |
| ALG6 (ALG6 alpha-1,3-glucosyltransferase) | no change | no change | 1.47 | -0.3 | inactive |
| GABRE (gamma-aminobutyric acid type A receptor subunit epsilon) | no change | no change | -0.48 | -0.86 | inactive |
| IFNGR1 (interferon gamma receptor 1) | no change | no change | -0.64 | -0.56 | inactive |
| ORC1 (origin recognition complex subunit 1) | no change | no change | -0.31 | 1.88 | inactive |
| GINM1 (glycosylated integral membrane protein 1) | no change | no change | -0.36 | -0.51 | inactive |
| EXOC2 (exocyst complex component 2) | no change | no change | 0 | -0.51 | inactive |
| ZYG11B (zyg-11 family member B, cell cycle regulator) | no change | no change | 0.66 | -0.27 | inactive |
| VCL (vinculin) | no change | no change | 0.21 | 2.15 | inactive |
| ZNF638 (zinc finger protein 638) | no change | no change | -0.78 | -0.47 | inactive |
| SRM (spermidine synthase) | no change | no change | 0.57 | 1.84 | inactive |
| ZFP30 (ZFP30 zinc finger protein) | no change | no change | -0.03 | -0.56 | inactive |
| VAMP3 (vesicle associated membrane protein 3) | no change | no change | -1.5 | 0.55 | inactive |
| ZNF106 (zinc finger protein 106) | no change | no change | 1.33 | -0.22 | inactive |
| TEKTL1 (tektin like 1) | no change | no change | 0.84 | 1.31 | inactive |
| LIMK1 (LIM domain kinase 1) | no change | no change | 0.82 | -0.01 | inactive |
| DHCR7 (7-dehydrocholesterol reductase) | no change | no change | 0.85 | -0.84 | inactive |
| CATSPERB (catsper channel auxiliary subunit beta) | no change | no change | 1.26 | 0.17 | inactive |
| NAXD (NAD(P)HX dehydratase) | no change | no change | -0.06 | -0.4 | inactive |
| DRC11 (dynein regulatory complex subunit 11) | no change | no change | -0.05 | -1 | inactive |
| CLXN (calaxin) | no change | no change | -0.88 | -0.43 | inactive |
| NRP2 (neuropilin 2) | no change | no change | -0.32 | 2.8 | inactive |
| ELAVL3 (ELAV like RNA binding protein 3) | no change | no change | -4.67 | 2.42 | inactive |
| PNPLA6 (patatin like domain 6, lysophospholipase) | no change | no change | 1.38 | -1.06 | inactive |
| HAND1 (heart and neural crest derivatives expressed 1) | no change | no change | 1.2 | 2.73 | inactive |
| PPA1 (inorganic pyrophosphatase 1) | no change | no change | 0.06 | 0.12 | inactive |
| USP18 (ubiquitin specific peptidase 18) | no change | no change | -1.09 | 0 | inactive |
| RND2 (Rho family GTPase 2) | no change | no change | -1.4 | -0.46 | inactive |
| RETREG2 (reticulophagy regulator family member 2) | no change | no change | -0.81 | -0.7 | inactive |
| OLFM2 (olfactomedin 2) | no change | no change | -0.18 | 1.2 | inactive |
| IGSF8 (immunoglobulin superfamily member 8) | no change | no change | 0.91 | -1.18 | inactive |
| KLC2 (kinesin light chain 2) | no change | no change | -1.16 | -0.08 | inactive |
| CHCHD2 (coiled-coil-helix-coiled-coil-helix domain containing 2) | no change | no change | 0.98 | 0.19 | inactive |
| TCEAL9 (transcription elongation factor A like 9) | no change | no change | 0.82 | 1.02 | inactive |

Limited to “caspase robust z-score” (8 entries from above):
HMGCL (3-hydroxy-3-methylglutaryl-CoA lyase)	-0.54
PEX12 (peroxisomal biogenesis factor 12)	3.52
EPRS1 (glutamyl-prolyl-tRNA synthetase 1)	0.76
COA6 (cytochrome c oxidase assembly factor 6)	-1.36
S100A11 (S100 calcium binding protein A11)	0.53
MRPL24 (mitochondrial ribosomal protein L24)	-0.5
BBS12 (Bardet-Biedl syndrome 12)	-0.95
COMT (catechol-O-methyltransferase)	6.72
